From patent publication US20140045771 (published 2014)

Experiment: general procedure: solution-phase peptide synthesis; DCC
Conditions: late stage modification step, Hydrochloride

| Substance | step yield |
| --- | --- |
| [1-(2-{[1-(2-amino-3-methylbutanoyl)cyclopentyl]carbonylamino}-3-methylbutanoyl)pyrrolidin-2-yl]-N-{3-oxo-3-[3-(trifluoromethyl)(1,2,4-triazolo[4,3-a]pyrazin-7-yl)]-1-[(2,4,5-trifluorophenyl)methyl]propyl}carboxamide | 97% |
| [1-(2-{[1-(2-amino-3-methylbutanoyl)cyclopentyl]carbonylamino}-3-methylbytanoyl)pyrrolidin-2-yl]-N-{3-oxo-3-[3-(trifluoromethyl)(1,2,4-triazolo[4,3-a]pyrazin-7-yl)]-1-[(2,4,5-trifluorophenyl) methyl]propyl}carboxamide Hydrochloride | 95% |
